# Experimental data taken from PubChem BioAssay AID1662 (Broad Institute, 2009).
# Among all 300,000 compounds or so, about 4,000 (1.3%) were called active. The shares of active, inactive and inconclusive entries below differ from those in the screen.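 How the source made its calls: active means mean replicate score, as percent of positive control median, at least 50; inconclusive means mean below 50 but one replicate at or above 50; inactive means mean and every replicate below 50.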
# Experiment: kanamycin survival loss of SKKanGAS strain – BacTiter-Glo luminescence, streptokinase expression inhibitor project, primary screen (AID 1662);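 further: strain carries kanamycin resistance gene driven by streptokinase promoter and grows in 40 µg/ml kanamycin; loss of luminescence reflects streptokinase promoter inhibition or plain growth inhibition; 0% = median of DMSO wells and 100% = positive control at its reference dose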
# Details: S. pyogenes SKKanGAS, kanamycin growth, 6 h, at 7.5 µM, hits give high values
row,Structure (SMILES),inhibition
1,COc1ccc(OC)c(-c2cnc(OC(C)(C)C)nc2OC(C)(C)C)c1,inactive: -6%
2,O=C(NCc1nnc(SCC(=O)N2CCOCC2)o1)c1c(F)cccc1F,inconclusive: 39.2%
3,Cc1cccc(-c2nnc(NC(=O)c3ccc(Cl)cc3)o2)c1,active: 122%
4,CC(C)n1nnnc1SCC(=O)N1CCN(C(=O)c2ccco2)CC1,inactive: -1.97%
5,CCc1cc(-c2n[nH]c(C)c2-c2ccccc2Cl)c(O)cc1OC,inconclusive: 36.3%
6,FC(F)(F)c1cccc(-c2cc3ccccc3nc2N2CCCC2)c1,active: 51.7%
7,O=C(c1ccc([N+](=O)[O-])cc1)N1CCN(c2cccc3[nH]ccc23)CC1,inactive: -5.09%
8,CCCCC(=O)Nc1ccc(C(=O)NNC(=S)NC(=O)c2ccco2)cc1,inconclusive: 47.6%
9,O=C(Oc1cccc(/C=N/Nc2nc(Nc3ccccc3)nc(N3CCOCC3)n2)c1)c1ccco1,inconclusive: 48.2%
10,Cc1cc(C(F)(F)F)c(C#N)c(SCC(=O)Nc2nc3cc(Br)ccc3s2)n1,inconclusive: 43.7%
11,O=C(COC(=O)c1ccc(Br)cc1)NCc1ccccc1,inactive: -7.05%
12,COc1ccc(OC)c(-c2csc(NC(=O)CSc3ccccc3)n2)c1,inactive: 25.7%
13,CC(=O)SC1CC2=CC(=O)CCC2(C)C2CCC3(C)C(CCC34CCC(=O)O4)C12 (stereo not given),inactive: -7.38%
14,CCCCCCCCCCCC(=O)c1c(O)cccc1O,active: 103%
15,CC(C)(C)C1CCC2(CC1)CC(=O)c1ccccc1O2 (stereo not given),inactive: 33.8%
16,COc1ccc(C2CC(c3ccccc3)=NN2c2ccc(S(N)(=O)=O)cc2)cc1 (stereo not given),inconclusive: 40.2%
17,COCC1CCN(C(=O)CCc2nnc(C3(c4ccc(Cl)cc4)CCC3)o2)C1 (stereo not given),active: 49.5%
18,CCCOc1ccc(C(=O)NNC(=S)NC(=O)c2ccccc2)cc1,active: 107%
19,CCN1C(=O)CSc2ccc(C(=O)NC3CCCCC3)cc21,inactive: 6.2%
20,CCCCn1c(O)c(C(CC)=Nc2ccc3c(c2)CCC3)c(=O)[nH]c1=O,active: 52.5%
21,CC(=O)OCC1=C(C(=O)O)N2C(=O)[C@@H](NC(=O)Cc3cccs3)[C@H]2SC1,active: 103%
22,O=[N+]([O-])c1ccc(-c2nc(Nc3cccc(O)c3)c3ccccc3n2)cc1,inconclusive: 43.7%
23,COc1ccc(-c2csc(Nc3ccc(S(=O)(=O)Nc4cc(OC)nc(OC)n4)cc3)n2)cc1,inconclusive: 48.6%

row,Structure (SMILES),inhibition
1,Cc1nn(CC(=O)Nc2c(F)c(F)cc(F)c2F)c(=O)c2cccn12,inconclusive: 25.8%
2,CCCCOc1ccc(C(=O)N/C(=C\c2cccc([N+](=O)[O-])c2)C(=O)OC(C)C)cc1,inactive: -0.746%
3,CCc1nnc(NC(=O)c2ccc(S(=O)(=O)N3CCCC(C)C3)cc2)o1 (stereo not given),inactive: 17%
4,O=C1NC(=O)/C(=C\c2ccccc2OCc2ccccc2)S1,inconclusive: 30.7%
5,O=C(CC1CCCCC1)c1c(O)c2ccccc2oc1=O,inconclusive: 45.1%
6,CN(C)Cc1c(C(=O)N/N=C/c2cccc(OCc3c(F)cccc3Cl)c2)nnn1-c1nonc1N,inactive: 12%
7,Oc1ccccc1/C=N/NC(=S)NCCc1ccccc1,active: 95.9%
8,COc1ccccc1N1CC(C(=O)Nc2nnc(SCC(=O)N3CCCC3)s2)CC1=O (stereo not given),inconclusive: 44.9%
9,O=C(Nc1ccccc1N1CCN(C(=O)c2ccccc2)CC1)c1ccccc1Cl,inconclusive: 48.7%
10,Cc1ccc(-c2cnc(N)n2C)cc1C,inconclusive: 40.8%
11,N#C/C(=C/c1ccc(N2CCCCCC2)o1)c1ccc(F)cc1,active: 64.7%
12,COc1ccccc1OCCNC(=O)c1ccco1,inconclusive: 37.5%
13,CN1CCN(c2ccc(C(F)(F)F)cc2NC(=O)c2ccco2)CC1,inactive: -4.38%
14,CCn1c(C(=O)N2CCc3ccccc3C2)cc2oc3ccccc3c21,inconclusive: 46.3%
15,Cc1ccc(C(=O)Nc2ccccc2N2CCCCC2)cc1,inactive: 19.2%
16,COc1cc(C(=O)Nc2ccc(NC(=O)C3CC3)nc2)cc(OC)c1OC,inactive: -3.55%
17,CC(=O)Oc1ccccc1C1=NN(C(=O)/C=C/c2ccccc2)C(c2ccccc2)C1 (stereo not given),inconclusive: 48.7%
18,CCOc1ccccc1N(CC(=O)Nc1ccccc1F)S(=O)(=O)c1ccccc1,inactive: 9.9%
19,O=C(Nc1ccnn1C1CCN(C(=O)c2ccc(F)cc2)CC1)C1CCOC1 (stereo not given),active: 52.3%
20,CCOC(=O)Cn1c(C(C)=O)nc2ccccc21,inactive: -0.947%
21,O=[N+]([O-])c1ccc(OCCCCCN2CCOCC2)cc1,inactive: 2.18%
22,Cc1ccc2nc(N3C(=O)C(O)=C(C(=O)c4ccco4)C3c3cccs3)sc2c1 (stereo not given),active: 51.7%
23,CCOc1ccc(Br)cc1S(=O)(=O)Nc1cccc(S(=O)(=O)N(C)C)c1,inactive: 2.3%

row,Structure (SMILES),inhibition
1,CC(=O)N1N=C(c2ccc(C)cc2)OC1c1ccc(C(C)C)cc1 (stereo not given),inconclusive: 34.2%
2,O=C(O)c1ccc(N2CCCCS2(=O)=O)cc1,inconclusive: 33%
3,CCCc1ccc(-c2cc(C(=O)N/N=C/c3ccc([N+](=O)[O-])o3)c3ccccc3n2)cc1,active: 96.5%
4,Cc1noc(C)c1C(=O)Nc1ccc2ccccc2c1,inconclusive: 39.5%
5,N#Cc1c(-c2ccccc2)nc(SCc2cccc(Cl)c2)[nH]c1=O,inconclusive: 49.2%
6,Cc1nc2c(-c3ccccc3)c[nH]n2c(=O)c1Cc1ccccc1,active: 71.3%
7,CC(C)Cn1c(=O)c(C(=O)Nc2ccncc2)c(O)c2ccccc21,active: 95.7%
8,Cc1ccc2c(c1)nnn2C1CCN(S(=O)(=O)c2ccc(C(=O)O)cc2)CC1,inactive: -1.7%
9,CC(/C=C1\SC(=S)N(CCCC(=O)Nc2ccc(C(=O)O)c(O)c2)C1=O)=C\c1ccccc1,active: 99.9%
10,CCc1cc(C(=O)N2CCCC(CCC(=O)NCc3cccc(OC)c3)C2)no1 (stereo not given),inconclusive: 23.5%
11,Cc1ccc(C(=O)NCCCC(=O)O)o1,inactive: 6.58%
12,Cc1csc(Nc2ccc(Cl)cc2)[n+]1-c1ccc(Cl)cc1,inconclusive: 47.6%
13,O=C(CCl)c1ccc(Cc2ncc(C(F)(F)F)cc2Cl)s1,active: 54.5%
14,Cc1ccc(NC(=O)c2cc(C(=O)c3cc(Cl)ccc3O)cn(-c3ccc(C)cc3)c2=O)cc1,inactive: 33.9%
15,O=S(=O)(Nc1nc2ccccc2nc1Cl)c1ccc2ccccc2c1,active: 51.4%
16,Cn1c(=O)c(C(=O)COC(=O)c2cc(C(F)(F)F)nc3c(C(F)(F)F)cccc23)c(N)n(CC2CC2)c1=O,inactive: 32.8%
17,CCOC(=O)c1c(NC(=O)CCS(=O)(=O)c2ccccc2)sc2c1CCN(C)C2,inconclusive: 33.4%
18,COc1ccc(-c2nnc(SC(C(=O)c3c[nH]c4ccccc34)c3ccccc3)n2N)cc1OC (stereo not given),inconclusive: 49%
19,NNC(=O)CSc1nc(-c2ccccc2)nc2c1CCCC2,inconclusive: 30.8%
20,CCOc1ccccc1OCCOCCOc1ccccc1[N+](=O)[O-],inactive: -1.45%
21,Cc1cc2oc(=O)cc(CN(C)Cc3ccccc3)c2cc1C(C)C,inconclusive: 49.2%
22,Cn1cc(C(=O)N/N=C/c2ccc(Br)c([N+](=O)[O-])c2)c2ccccc21,inactive: 4.16%
23,Cc1sc2ncn(CC(=O)Nc3cccc(S(N)(=O)=O)c3)c(=O)c2c1-c1ccccc1,inactive: 3.26%

row,Structure (SMILES),inhibition
1,CCOC(=O)c1cnc(-n2nc(C)cc2C)nc1NNc1cc(-c2ccccc2)nc(C)n1,active: 103%
2,CCOC(=O)Cc1nnc2c(Nc3ccc(Cl)cc3)nc3nonc3n12,inconclusive: 43.1%
3,O=S(=O)(NCc1nnc2c(C(F)(F)F)cc(Cl)cn12)c1ccccc1,inconclusive: 34.1%
4,Cc1ccccc1C(=O)NC(=S)N(C)C1CCCCC1,inconclusive: 35.6%
5,CCOc1cc(/C=N/Nc2cc(C)nc(-n3nc(C)cc3C)n2)ccc1O,active: 66%
6,Oc1[nH]c2ccccc2c1N=NC(=S)NCCc1ccccc1,inconclusive: 47.8%
7,Cc1ccc(C)c2[nH]c(=O)c(CN(Cc3nnnn3C3CCCCC3)CC3CCCO3)cc12 (stereo not given),inactive: 12.4%
8,COc1ccc(CCNC(=O)c2cccc(NS(=O)(=O)c3ccccc3F)c2)cc1OC,inconclusive: 39.4%
9,O=C(Nc1ccc(N2CCOCC2)c(S(=O)(=O)Nc2cc(Cl)ccc2Cl)c1)c1cccnc1,inactive: 10.9%
10,O=C(/C(=N\Nc1ccc([N+](=O)[O-])cc1)Sc1nnnn1-c1ccccc1)c1ccccc1,inconclusive: 44.4%
11,O=C(Nc1cccc(Br)c1)c1cc(S(=O)(=O)N2CCOCC2)cs1,inconclusive: 47.8%
12,COc1ccc(C2CC(c3cccs3)=NN2C(=O)CSC2=NCCS2)cc1 (stereo not given),inconclusive: 47.7%
13,COc1ccc(C(=O)N2CCCC(CCC(=O)NCc3ccc(F)c(F)c3)C2)o1 (stereo not given),inconclusive: 47.6%
14,O=C1c2ccccc2NC(c2ccc(Br)s2)N1O (stereo not given),inconclusive: 28%
15,Cc1nnc2c3ccccc3c(-c3ccccc3)nn12,inactive: 6.11%
16,O=C(O)CC1c2ccccc2C=Cc2ccccc21,inactive: 1.26%
17,O=c1[nH]c(NCCCO)nc2c1C1(CCCC1)Cc1ccccc1-2,inactive: -11.5%
18,O=C(CNc1cccc2ccccc12)N/N=C/c1ccc[nH]1,active: 49.7%
19,CCCCCCCCCCCCC/C=C/[C@@H](O)[C@@H](N)CO,active: 93.9%
20,CCc1cccc2c(C(=O)CSc3nncn3-c3ccc(OC)cc3)c[nH]c12,inactive: 5.46%
21,COc1ccc(/C=N/NC(=O)c2nc(-c3ccccc3)cc(-c3ccccc3)n2)cc1,inconclusive: 44.8%

# Rewritten with tabs: part of the list above.
row	Structure (SMILES)	inhibition
13	COc1ccc(C(=O)N2CCCC(CCC(=O)NCc3ccc(F)c(F)c3)C2)o1 (stereo not given)	inconclusive: 47.6%
14	O=C1c2ccccc2NC(c2ccc(Br)s2)N1O (stereo not given)	inconclusive: 28%
15	Cc1nnc2c3ccccc3c(-c3ccccc3)nn12	inactive: 6.11%
16	O=C(O)CC1c2ccccc2C=Cc2ccccc21	inactive: 1.26%
17	O=c1[nH]c(NCCCO)nc2c1C1(CCCC1)Cc1ccccc1-2	inactive: -11.5%
18	O=C(CNc1cccc2ccccc12)N/N=C/c1ccc[nH]1	active: 49.7%

# An excerpt of these results, bar-delimited:
row | Structure (SMILES) | inhibition
18 | O=C(CNc1cccc2ccccc12)N/N=C/c1ccc[nH]1 | active: 49.7%
19 | CCCCCCCCCCCCC/C=C/[C@@H](O)[C@@H](N)CO | active: 93.9%
